Data from article PMC8748873.
These are yes or no findings as the source states them, for the method shown. In cells and extracts the contact can be indirect.

Amino acid sequences for entries named in this document (tags omitted).
UniProt P01108: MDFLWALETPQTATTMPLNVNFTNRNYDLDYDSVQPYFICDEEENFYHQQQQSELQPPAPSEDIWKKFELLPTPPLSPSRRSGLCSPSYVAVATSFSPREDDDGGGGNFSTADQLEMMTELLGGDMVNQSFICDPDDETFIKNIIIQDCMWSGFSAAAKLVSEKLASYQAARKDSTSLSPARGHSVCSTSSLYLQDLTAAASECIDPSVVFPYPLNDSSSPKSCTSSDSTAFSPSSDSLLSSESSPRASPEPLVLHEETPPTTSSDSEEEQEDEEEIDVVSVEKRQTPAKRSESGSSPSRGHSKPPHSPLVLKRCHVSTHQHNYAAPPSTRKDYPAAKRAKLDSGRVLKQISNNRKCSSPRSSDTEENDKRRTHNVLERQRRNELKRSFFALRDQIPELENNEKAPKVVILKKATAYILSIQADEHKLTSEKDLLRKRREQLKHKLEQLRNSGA

T1: RONIN (THAP Domain Containing 11) (mouse (endogenous in embryonic brain)) (UniProt Q9JJD0)
T1 sequence: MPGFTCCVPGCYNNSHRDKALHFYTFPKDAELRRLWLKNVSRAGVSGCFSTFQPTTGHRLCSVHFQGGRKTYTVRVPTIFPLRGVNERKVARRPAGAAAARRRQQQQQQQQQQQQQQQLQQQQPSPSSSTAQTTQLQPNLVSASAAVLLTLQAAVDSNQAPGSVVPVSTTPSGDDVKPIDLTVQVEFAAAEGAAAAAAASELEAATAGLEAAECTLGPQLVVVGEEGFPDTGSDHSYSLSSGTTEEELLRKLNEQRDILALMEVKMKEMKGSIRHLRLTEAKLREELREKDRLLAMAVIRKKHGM


Experiments:
[1] = target: T1, RONIN (THAP Domain Containing 11) (mouse (endogenous in embryonic brain)); experiment: co-IP; endogenous proteins from embryonic mouse brain lysate (wild type, Hcfc1 A115V/Y or Ronin F80L/F80L); 500 ug lysate with 1 ug antibody overnight at 4 °C, Protein A/G magnetic beads, western blot
[2] = target: T1, RONIN (THAP Domain Containing 11) (mouse (endogenous in embryonic brain)); experiment: co-IP; endogenous proteins from embryonic mouse brain and retinae; antibody overnight at 4 °C, Protein A/G magnetic beads, western blot

Row | binding [1] | binding [2] | Molecule
1 | no binding | – | C-MYC (from UniProt P01108 1-454)
2 | – | no binding | ZNF143 (protein, UniProt O70230 1-638) MLLAQINRDSQGMTEFPGGGMEAQHVTLCLTEAVTVADGDNLENMEGVSLQAVTLADGSTAYIQHNSKDGRLIDGQVIQLEDGSAAYVQHVPIPKSTGDSLRLEDGQAVQLEDGTTAFIHHTSKDSYDQSSLQAVQLEDGTTAYIHHAVQVPQSDTILAIQADGTVAGLHTGDATIDPDTISALEQYAAKVSIDGSDGVTSTGMIGENEQEKKMQIVLQGHATRVTPKSQQSGEKAFRCKYDGCGKLYTTAHHLKVHERSHTGDRPYQCEHSGCGKAFATGYGLKSHFRTHTGEKPYRCSEDNCTKSFKTSGDLQKHIRTHTGERPFKCPIEGCGRSFTTSNIRKVHIRTHTGERPYYCTEPGCGRAFASATNYKNHVRIHTGEKPYVCTVPGCDKRFTEYSSLYKHHVVHTHSKPYNCNHCGKTYKQISTLAMHKRTAHNDTEPIEEEQEAFFEPPPGQGDDVLKGSQITYVTGVDGEDIVSTQVATVTQSGLSQQVTLISQDGTQHVNISQADMQAIGNTITMVTQDGTPITVPTHDAVISSAGTHSVAMVTAEGTEGQQVAIVAQDLAAFHTASSEMGHQQHSHHLVTTETRPLTLVATSNGTQIAVQLGEQPSLEEAIRIASRIQQGETPGLDD
